# Measurements published in the supplement of paper PMC8728848.
# The list shows a part of the results.
# Experiments:
# Assay in all cases: glycan array binding signal (z-score within array); higher = stronger binding
# Conditions in all cases: glycan notation: IUPAC condensed, linker removed
# [1] = molecular target: Fuc(a1-2)[Gal(a1-4)]Gal(b1-4)GlcNAc
# How it was run: (§1)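 Columns mapping to the same glycan were averaged after glycan names were converted to IUPAC-condensed notation. The data come from 3228 arrays in the Consortium for Functional Glycomics database, limited to those with an available protein sequence. Binding is reported as a within-array Z-score averaged across arrays of one protein sequence and across linkers.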
# [2] = molecular target: Fuc(a1-2)[GalNAc(a1-3)]Gal
# How it was run: as §1
# [3] = molecular target: Fuc(a1-2)[GalNAc(a1-3)]Gal(b1-3)GalNAc(a1-3)[Fuc(a1-2)]Gal(b1-4)GlcNAc
# How it was run: as §1
# [4] = molecular target: Fuc(a1-2)[GalNAc(a1-3)]Gal(b1-3)GlcNAc
# How it was run: as §1
# [5] = molecular target: Fuc(a1-2)[GalNAc(a1-3)]Gal(b1-3)GlcNAc(b1-2)Man(a1-3)[Fuc(a1-2)[GalNAc(a1-3)]Gal(b1-3)GlcNAc(b1-2)Man(a1-6)]Man(b1-4)GlcNAc(b1-4)GlcNAc
# How it was run: as §1
# [6] = molecular target: Fuc(a1-2)[GalNAc(a1-3)]Gal(b1-4)Glc
# How it was run: as §1
# [7] = molecular target: Fuc(a1-2)[GalNAc(a1-3)]Gal(b1-4)GlcNAc
# How it was run: as §1
# [8] = molecular target: Fuc(a1-2)[GalNAc(a1-3)]Gal(b1-4)GlcNAc(b1-2)Man(a1-3)[Fuc(a1-2)[GalNAc(a1-3)]Gal(b1-4)GlcNAc(b1-2)Man(a1-6)]Man(b1-4)GlcNAc(b1-4)GlcNAc
# How it was run: as §1
# [9] = molecular target: Fuc(a1-2)[GalNAc(a1-3)]Gal(b1-4)GlcNAc(b1-3)Gal(b1-4)GlcNAc
# How it was run: as §1
# [10] = molecular target: Fuc(a1-2)[GalNAc(a1-3)]Gal(b1-4)GlcNAc(b1-3)Gal(b1-4)GlcNAc(b1-3)Gal(b1-4)GlcNAc
# How it was run: as §1
# [11] = molecular target: Fuc(a1-2)[GalNAc(a1-3)]Gal(b1-4)[Fuc(a1-3)]GlcNAc
# How it was run: as §1
# [12] = molecular target: Fuc(a1-2)[GalNAc(a1-4)]Gal(b1-4)GlcNAc
# How it was run: as §1
# [13] = molecular target: Fuc(a1-2)[GalNAc(b1-3)]Gal
# How it was run: as §1
# [14] = molecular target: Fuc(a1-3)GlcNAc
# How it was run: as §1
# [15] = molecular target: Fuc(a1-3)[Gal(b1-4)]Glc6S
# How it was run: as §1
# [16] = molecular target: Fuc(a1-3)[Gal(b1-4)]GlcNAc
# How it was run: as §1
# [17] = molecular target: Fuc(a1-3)[Gal(b1-4)]GlcNAc(b1-2)Man(a1-3)[Fuc(a1-3)[Gal(b1-4)]GlcNAc(b1-2)Man(a1-6)]Man(b1-4)GlcNAc(b1-4)GlcNAc
# How it was run: as §1
# [18] = molecular target: Fuc(a1-3)[Gal(b1-4)]GlcNAc(b1-3)Gal(b1-3)[Fuc(a1-4)]GlcNAc
# How it was run: as §1
# [19] = molecular target: Fuc(a1-3)[Gal(b1-4)]GlcNAc(b1-3)GalNAc
# How it was run: as §1
# [20] = molecular target: Fuc(a1-3)[Gal(b1-4)]GlcNAc(b1-4)Gal(b1-4)[Fuc(a1-3)]GlcNAc
# How it was run: as §1
# [21] = molecular target: Fuc(a1-3)[Gal(b1-4)]GlcNAc(b1-4)Gal(b1-4)[Fuc(a1-3)]GlcNAc(b1-4)Gal(b1-4)[Fuc(a1-3)]GlcNAc
# How it was run: as §1
# [22] = molecular target: Fuc(a1-3)[Gal(b1-4)]GlcNAc(b1-6)[Gal(b1-3)GlcNAc(b1-3)]Gal(b1-4)Glc
# How it was run: as §1
# [23] = molecular target: Fuc(a1-3)[Gal(b1-4)]GlcNAc6S
# How it was run: as §1
# [24] = molecular target: Fuc(a1-3)[Gal3S(b1-4)]GlcNAc
# How it was run: as §1
# [25] = molecular target: Fuc(a1-3)[Gal3S(b1-4)]GlcNAc6S
# How it was run: as §1
# [26] = molecular target: Fuc(a1-3)[GalNAc(b1-4)]GlcNAc
# How it was run: as §1
# [27] = molecular target: Fuc(a1-4)GlcNAc
# How it was run: as §1
# [28] = molecular target: Fuc(b1-3)GlcNAc
# How it was run: as §1
# [29] = molecular target: Gal(a1-2)Gal
# How it was run: as §1
# [30] = molecular target: Gal(a1-3)Gal
# How it was run: as §1
# [31] = molecular target: Gal(a1-3)Gal(b1-3)GlcNAc
# How it was run: as §1
# [32] = molecular target: Gal(a1-3)Gal(b1-3)GlcNAc(b1-2)Man(a1-3)[Gal(a1-3)Gal(b1-3)GlcNAc(b1-2)Man(a1-6)]Man(b1-4)GlcNAc(b1-4)GlcNAc
# How it was run: as §1
# [33] = molecular target: Gal(a1-3)Gal(b1-3)[Fuc(a1-4)]GlcNAc(b1-2)Man(a1-3)[Gal(a1-3)Gal(b1-3)[Fuc(a1-4)]GlcNAc(b1-2)Man(a1-6)]Man(b1-4)GlcNAc(b1-4)GlcNAc
# How it was run: as §1
# [34] = molecular target: Gal(a1-3)Gal(b1-4)Glc
# How it was run: as §1
# [35] = molecular target: Gal(a1-3)Gal(b1-4)GlcNAc
# How it was run: as §1
# [36] = molecular target: Gal(a1-3)Gal(b1-4)GlcNAc(b1-3)GalNAc
# How it was run: as §1
# [37] = molecular target: Gal(a1-3)Gal(b1-4)[Fuc(a1-3)]GlcNAc
# How it was run: as §1
# [38] = molecular target: Gal(a1-3)Gal(b1-4)[Fuc(a1-3)]GlcNAc(b1-2)Man(a1-3)[Gal(a1-3)Gal(b1-4)[Fuc(a1-3)]GlcNAc(b1-2)Man(a1-6)]Man(b1-4)GlcNAc(b1-4)GlcNAc
# How it was run: as §1
binder,measurement,setting,value
"PEB4 (Campylobacter jejuni), A1VYV6 (protein) MKKFSLVAAALIAGVALNVNAATVATVNGKSISDAEVSEFFAPMLRGQDFKTLPDNQKKALIQQYIMQDLILQDAKKQNLEKDPLYTKELDRAKDAILVNVYQEKILNTIKIDAAKVKAFYDQNKDKYVKPARVQAKHILVATEKEAKDIINELKGLKGKELDAKFSELAKEKSIDPGSKNQGGELGWFDQSTMVKPFTDAAFALKNGTITTTPVKTNFGYHVILKENSQAKGQIKFDEVKQGIENGLKFEEFKKVINQKGQDLLNSAKVEYK",glycan array binding signal (z-score),[1],-0.298
same,glycan array binding signal (z-score),[2],0.13
same,glycan array binding signal (z-score),[3],0.481
same,glycan array binding signal (z-score),[4],1.94
same,glycan array binding signal (z-score),[5],-0.265
same,glycan array binding signal (z-score),[6],-0.535
same,glycan array binding signal (z-score),[7],0.789
same,glycan array binding signal (z-score),[8],1.9
same,glycan array binding signal (z-score),[9],0.759
same,glycan array binding signal (z-score),[10],0
same,glycan array binding signal (z-score),[11],1.13
same,glycan array binding signal (z-score),[12],0.144
same,glycan array binding signal (z-score),[13],0.071
same,glycan array binding signal (z-score),[14],-0.572
same,glycan array binding signal (z-score),[15],-0.356
same,glycan array binding signal (z-score),[16],-0.387
same,glycan array binding signal (z-score),[17],-0.571
same,glycan array binding signal (z-score),[18],-0.033
same,glycan array binding signal (z-score),[19],1.72
same,glycan array binding signal (z-score),[20],0.912
same,glycan array binding signal (z-score),[21],-0.132
same,glycan array binding signal (z-score),[22],1.05
same,glycan array binding signal (z-score),[23],1.19
same,glycan array binding signal (z-score),[24],-0.585
same,glycan array binding signal (z-score),[25],0.881
same,glycan array binding signal (z-score),[26],1.58
same,glycan array binding signal (z-score),[27],-0.137
same,glycan array binding signal (z-score),[28],0.456
same,glycan array binding signal (z-score),[29],-0.516
same,glycan array binding signal (z-score),[30],-0.34
same,glycan array binding signal (z-score),[31],1.99
same,glycan array binding signal (z-score),[32],-0.247
same,glycan array binding signal (z-score),[33],3.83
same,glycan array binding signal (z-score),[34],1.18
same,glycan array binding signal (z-score),[35],-1.29
same,glycan array binding signal (z-score),[36],0.458
same,glycan array binding signal (z-score),[37],0.342
same,glycan array binding signal (z-score),[38],2.12

# Retrieved one by one from above (2):
binder,measurement,setting,value
"PEB4 (Campylobacter jejuni), A1VYV6 (protein) MKKFSLVAAALIAGVALNVNAATVATVNGKSISDAEVSEFFAPMLRGQDFKTLPDNQKKALIQQYIMQDLILQDAKKQNLEKDPLYTKELDRAKDAILVNVYQEKILNTIKIDAAKVKAFYDQNKDKYVKPARVQAKHILVATEKEAKDIINELKGLKGKELDAKFSELAKEKSIDPGSKNQGGELGWFDQSTMVKPFTDAAFALKNGTITTTPVKTNFGYHVILKENSQAKGQIKFDEVKQGIENGLKFEEFKKVINQKGQDLLNSAKVEYK",glycan array binding signal (z-score),[33],3.83
same,glycan array binding signal (z-score),[10],0
